These results are taken from article PMC9389162.

Protein sequences, listed by entry. Tags and fused reporters are not part of them.
UniProt P30874: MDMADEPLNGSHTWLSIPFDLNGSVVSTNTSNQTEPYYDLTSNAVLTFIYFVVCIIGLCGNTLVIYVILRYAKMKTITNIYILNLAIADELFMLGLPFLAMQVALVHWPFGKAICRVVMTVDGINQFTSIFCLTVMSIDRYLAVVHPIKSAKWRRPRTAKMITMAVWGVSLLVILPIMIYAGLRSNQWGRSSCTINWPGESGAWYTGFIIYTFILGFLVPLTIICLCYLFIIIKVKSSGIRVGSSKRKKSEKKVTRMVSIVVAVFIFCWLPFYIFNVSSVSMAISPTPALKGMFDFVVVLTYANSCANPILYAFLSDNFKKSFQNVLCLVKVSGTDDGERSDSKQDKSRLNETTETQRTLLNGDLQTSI
UniProt P35346: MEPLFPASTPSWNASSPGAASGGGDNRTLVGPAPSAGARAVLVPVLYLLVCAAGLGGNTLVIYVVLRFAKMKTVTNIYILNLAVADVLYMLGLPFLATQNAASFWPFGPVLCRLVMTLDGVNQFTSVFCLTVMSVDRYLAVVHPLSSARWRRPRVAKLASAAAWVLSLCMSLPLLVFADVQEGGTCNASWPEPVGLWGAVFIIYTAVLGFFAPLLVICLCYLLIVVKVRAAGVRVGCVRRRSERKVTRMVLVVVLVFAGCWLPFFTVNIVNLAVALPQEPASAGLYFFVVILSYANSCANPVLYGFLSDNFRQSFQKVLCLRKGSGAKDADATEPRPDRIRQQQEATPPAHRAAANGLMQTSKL
UniProt P30680: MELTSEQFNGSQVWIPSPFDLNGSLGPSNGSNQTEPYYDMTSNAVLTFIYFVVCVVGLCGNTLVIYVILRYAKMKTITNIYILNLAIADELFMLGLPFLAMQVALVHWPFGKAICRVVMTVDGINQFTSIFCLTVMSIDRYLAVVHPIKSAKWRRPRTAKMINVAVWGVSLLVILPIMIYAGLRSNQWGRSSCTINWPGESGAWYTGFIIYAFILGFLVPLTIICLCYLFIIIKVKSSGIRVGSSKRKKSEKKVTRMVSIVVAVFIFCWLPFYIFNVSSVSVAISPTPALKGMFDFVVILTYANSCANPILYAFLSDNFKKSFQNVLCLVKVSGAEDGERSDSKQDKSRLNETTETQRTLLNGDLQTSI

Results are given in words; binding and its absence hold for the method and conditions named. Binding seen in cells or lysates may run through a third protein. Some binding calls cover weakened binding; strength is not graded here.

For assay [1], the target named is human somatostatin receptor type 2 (SST2), HA-tagged and SNAP-tagged copies co-expressed (human) (UniProt P30874). Put plainly: proximity ligation; in situ PLA (Duolink) on fixed, permeabilised GH3, A7 and M2 cells transiently co-transfected with HA-SST2 and SNAP-SST2; mouse anti-HA and rabbit anti-SNAP; amplification 2 h; basal conditions.
Assay [2] concerns the target somatostatin receptor type 5 (SST5), endogenous in human melanoma A7 and M2 cells (human (endogenous in A7 and M2)) (UniProt P35346). Put plainly: proximity ligation; in situ PLA (Duolink) on fixed, permeabilised GH3, A7 (FLNA-expressing) and M2 (FLNA-lacking) cells, endogenous receptors; rabbit anti-SST2 and mouse anti-SST5; basal or 100 nM octreotide or pasireotide for 5 min; amplification 18 h; PLA puncta per cell counted.

Assay [3] addresses T1, somatostatin receptor type 5 (SST5), endogenous in rat GH3 cells (rat (endogenous in GH3)) (UniProt P30938).
T1 sequence: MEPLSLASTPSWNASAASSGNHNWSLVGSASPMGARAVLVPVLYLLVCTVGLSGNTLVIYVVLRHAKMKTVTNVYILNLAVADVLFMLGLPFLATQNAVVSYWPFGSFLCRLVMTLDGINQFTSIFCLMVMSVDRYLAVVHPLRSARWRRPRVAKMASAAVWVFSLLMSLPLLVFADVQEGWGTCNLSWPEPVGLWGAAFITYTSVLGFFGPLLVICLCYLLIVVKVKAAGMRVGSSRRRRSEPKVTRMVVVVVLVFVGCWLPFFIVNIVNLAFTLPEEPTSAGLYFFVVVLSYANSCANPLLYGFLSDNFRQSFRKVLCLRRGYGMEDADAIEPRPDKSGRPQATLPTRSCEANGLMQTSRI
Described as above.

Assay [4] has as its target T1, somatostatin receptor type 5 (SST5), endogenous in rat GH3 cells (rat (endogenous in GH3)). Put plainly: proximity ligation; in situ PLA (Duolink) on fixed, permeabilised GH3, A7 and M2 cells, endogenous SST5; rabbit and mouse anti-SST5 antibodies; amplification 18 h.

As for “human somatostatin receptor type 2 (SST2), HA-tagged and SNAP-tagged copies co-expressed (from UniProt P30874 1-369)”, the binding entry in assay [1] is reported as “binds”.

Consider “somatostatin receptor type 2 (SST2), endogenous in human melanoma A7 and M2 cells (from UniProt P30874 1-369)”, for which the binding result in assay [2] is “binds”.

“somatostatin receptor type 2 (SST2), endogenous in rat GH3 cells (from UniProt P30680 1-369)”: the binding result in assay [3] was “binds”.

B1: somatostatin receptor type 5 (SST5), endogenous in rat GH3 cells (receptor, UniProt P30938 1-363)
chain: T1 sequence
As to B1, the binding result in assay [4] is “binds”.
